No constants are given. Whether binding was seen depends on the method and setting. Binding seen in cells or lysates may run through a third protein. Some entries that bind do so weakly or less than the wild type.
Key:
[1] = biological target: DExH-Box helicase 9 (DHX9) (human (endogenous in THP-1-derived macrophages)) (UniProt Q08211); experiment: co-IP; nuclear fractions of macrophages; immunoprecipitated with DHX9 antibody, Western blot for p65
[2] = biological target: DExH-Box helicase 9 (DHX9) (human (endogenous in THP-1-derived macrophages)) (UniProt Q08211); experiment: co-IP; lysate of macrophages treated with or without 40 μg/mL oxLDL for 24 h; immunoprecipitated with DHX9 antibody, Western blot for p65

By UniProt entry, the sequences of proteins in these tests, tags left out.
UniProt Q08211: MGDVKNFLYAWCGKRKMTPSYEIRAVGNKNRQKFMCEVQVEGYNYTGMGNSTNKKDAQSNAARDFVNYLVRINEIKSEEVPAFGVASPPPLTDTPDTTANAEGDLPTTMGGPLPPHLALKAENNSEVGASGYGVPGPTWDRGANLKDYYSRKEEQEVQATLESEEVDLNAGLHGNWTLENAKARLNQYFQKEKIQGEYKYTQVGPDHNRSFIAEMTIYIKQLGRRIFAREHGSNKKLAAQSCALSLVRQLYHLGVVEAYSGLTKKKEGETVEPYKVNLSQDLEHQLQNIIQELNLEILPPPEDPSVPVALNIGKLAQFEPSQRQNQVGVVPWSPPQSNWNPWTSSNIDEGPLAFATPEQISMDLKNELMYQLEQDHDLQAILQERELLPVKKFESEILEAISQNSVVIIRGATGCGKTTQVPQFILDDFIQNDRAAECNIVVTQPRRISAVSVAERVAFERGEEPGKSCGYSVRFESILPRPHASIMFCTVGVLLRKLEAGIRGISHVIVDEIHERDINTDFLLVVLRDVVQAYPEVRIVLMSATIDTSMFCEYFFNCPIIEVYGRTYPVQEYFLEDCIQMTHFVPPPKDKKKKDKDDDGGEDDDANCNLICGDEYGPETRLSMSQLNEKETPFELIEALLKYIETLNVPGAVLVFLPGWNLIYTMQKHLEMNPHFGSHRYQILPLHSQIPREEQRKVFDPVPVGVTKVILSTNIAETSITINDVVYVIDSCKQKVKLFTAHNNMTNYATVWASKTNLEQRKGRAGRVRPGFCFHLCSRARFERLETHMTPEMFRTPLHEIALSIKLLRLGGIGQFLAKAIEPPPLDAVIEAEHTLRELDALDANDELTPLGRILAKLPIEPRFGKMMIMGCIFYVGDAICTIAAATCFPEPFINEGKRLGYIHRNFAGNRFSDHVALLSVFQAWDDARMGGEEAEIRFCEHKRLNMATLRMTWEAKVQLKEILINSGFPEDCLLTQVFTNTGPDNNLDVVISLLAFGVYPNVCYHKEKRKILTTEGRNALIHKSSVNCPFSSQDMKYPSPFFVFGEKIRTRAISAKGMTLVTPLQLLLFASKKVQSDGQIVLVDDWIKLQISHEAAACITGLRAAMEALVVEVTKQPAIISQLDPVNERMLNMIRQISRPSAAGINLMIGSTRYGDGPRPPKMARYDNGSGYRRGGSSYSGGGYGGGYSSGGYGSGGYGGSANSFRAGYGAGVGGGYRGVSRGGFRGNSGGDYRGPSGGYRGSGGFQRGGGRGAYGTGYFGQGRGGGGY
UniProt Q04206: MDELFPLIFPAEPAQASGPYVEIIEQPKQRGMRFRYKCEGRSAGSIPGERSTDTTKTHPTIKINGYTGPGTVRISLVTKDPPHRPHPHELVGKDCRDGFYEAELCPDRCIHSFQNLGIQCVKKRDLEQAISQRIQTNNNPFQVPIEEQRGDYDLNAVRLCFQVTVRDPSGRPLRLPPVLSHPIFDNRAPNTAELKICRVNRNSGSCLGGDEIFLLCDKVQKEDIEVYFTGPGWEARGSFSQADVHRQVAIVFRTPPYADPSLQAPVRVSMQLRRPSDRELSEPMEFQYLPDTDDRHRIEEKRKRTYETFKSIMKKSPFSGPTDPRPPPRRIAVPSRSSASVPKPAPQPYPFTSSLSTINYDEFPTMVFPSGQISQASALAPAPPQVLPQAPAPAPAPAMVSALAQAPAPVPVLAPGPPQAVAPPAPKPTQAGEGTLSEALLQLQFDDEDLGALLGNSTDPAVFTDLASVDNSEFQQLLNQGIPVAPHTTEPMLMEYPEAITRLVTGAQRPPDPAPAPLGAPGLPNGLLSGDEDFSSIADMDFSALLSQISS

binding [1]: binds | binding [2]: binds
Substance: p65 nuclear factor kappa-light-chain-enhancer of activated B cells (NF-κB) (from UniProt Q04206 1-551)
